Results taken from US20090068182A1 (ARIUS RESEARCH, published 2009).
These are yes or no findings as the source states them, for the method shown. Some binding calls cover weakened binding; strength is not graded here.

Key:
[1] = target: AR40A746.2.3 antigen (CD9) in cynomolgus monkey normal tissues (cynomolgus monkey); experiment: IHC on normal tissue micro arrays, 5 micrograms/mL
[2] = target: AR40A746.2.3 antigen (CD9) in cynomolgus monkey normal tissues (cynomolgus monkey); experiment: IHC on normal spleen tissue

binding [1]: binds | binding [2]: binds
B1: AR40A746.2.3 monoclonal antibody (hybridoma IDAC 141204-01) (antibody, V domains shown)
VH: DVQLQESGPGLVKPSQSLSLTCTVTGYSITSDYAWNWIRQFPGNKLEWMGYISYSGFTNYNPSLKSRISITRDTSKNQFFLQLSSVTTEDTATYFCEGGNYRYSWFPYWGQGTLVTVSA
VL: DIQMTQTTSSLSASLGDRVTISCSASQGISNYLNWYQQKPDGNVKLLIYYTSSLHSGVPSRFSGSGSGTDYSLTISNLEPEDIATYYCQQYSKLPYTFGGGTKLEIKR
notes: also called IDAC 141204-01 antibody; mAR40A746.2.3
